Patent US20080118503A1
No constants are given. Whether binding was seen depends on the method and setting. Some binding calls cover weakened binding; strength is not graded here.

Amino acid sequences for entries named in this document (tags omitted). Residues count along the entry.
UniProt P48357, residues 22-839: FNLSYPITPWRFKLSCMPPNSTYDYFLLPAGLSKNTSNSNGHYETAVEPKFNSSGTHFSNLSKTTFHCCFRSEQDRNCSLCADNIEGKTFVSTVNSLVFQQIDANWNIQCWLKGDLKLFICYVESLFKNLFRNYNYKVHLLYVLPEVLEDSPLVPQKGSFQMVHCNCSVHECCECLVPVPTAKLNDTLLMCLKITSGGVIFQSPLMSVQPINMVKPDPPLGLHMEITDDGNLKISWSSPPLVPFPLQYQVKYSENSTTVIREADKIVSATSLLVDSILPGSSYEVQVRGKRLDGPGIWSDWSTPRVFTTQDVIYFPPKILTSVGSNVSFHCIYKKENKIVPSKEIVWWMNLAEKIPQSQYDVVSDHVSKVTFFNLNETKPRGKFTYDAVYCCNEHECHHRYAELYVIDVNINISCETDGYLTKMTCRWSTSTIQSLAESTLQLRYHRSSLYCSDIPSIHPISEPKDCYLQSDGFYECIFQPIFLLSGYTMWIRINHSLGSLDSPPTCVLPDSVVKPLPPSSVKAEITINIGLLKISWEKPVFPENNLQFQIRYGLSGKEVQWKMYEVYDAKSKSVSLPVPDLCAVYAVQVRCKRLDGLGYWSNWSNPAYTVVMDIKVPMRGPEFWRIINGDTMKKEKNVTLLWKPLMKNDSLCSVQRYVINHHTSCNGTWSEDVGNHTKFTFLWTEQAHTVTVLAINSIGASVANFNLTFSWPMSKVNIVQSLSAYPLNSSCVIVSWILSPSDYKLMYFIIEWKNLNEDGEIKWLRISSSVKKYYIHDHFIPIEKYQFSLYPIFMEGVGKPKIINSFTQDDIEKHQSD
UniProt P48356, residues 22-839: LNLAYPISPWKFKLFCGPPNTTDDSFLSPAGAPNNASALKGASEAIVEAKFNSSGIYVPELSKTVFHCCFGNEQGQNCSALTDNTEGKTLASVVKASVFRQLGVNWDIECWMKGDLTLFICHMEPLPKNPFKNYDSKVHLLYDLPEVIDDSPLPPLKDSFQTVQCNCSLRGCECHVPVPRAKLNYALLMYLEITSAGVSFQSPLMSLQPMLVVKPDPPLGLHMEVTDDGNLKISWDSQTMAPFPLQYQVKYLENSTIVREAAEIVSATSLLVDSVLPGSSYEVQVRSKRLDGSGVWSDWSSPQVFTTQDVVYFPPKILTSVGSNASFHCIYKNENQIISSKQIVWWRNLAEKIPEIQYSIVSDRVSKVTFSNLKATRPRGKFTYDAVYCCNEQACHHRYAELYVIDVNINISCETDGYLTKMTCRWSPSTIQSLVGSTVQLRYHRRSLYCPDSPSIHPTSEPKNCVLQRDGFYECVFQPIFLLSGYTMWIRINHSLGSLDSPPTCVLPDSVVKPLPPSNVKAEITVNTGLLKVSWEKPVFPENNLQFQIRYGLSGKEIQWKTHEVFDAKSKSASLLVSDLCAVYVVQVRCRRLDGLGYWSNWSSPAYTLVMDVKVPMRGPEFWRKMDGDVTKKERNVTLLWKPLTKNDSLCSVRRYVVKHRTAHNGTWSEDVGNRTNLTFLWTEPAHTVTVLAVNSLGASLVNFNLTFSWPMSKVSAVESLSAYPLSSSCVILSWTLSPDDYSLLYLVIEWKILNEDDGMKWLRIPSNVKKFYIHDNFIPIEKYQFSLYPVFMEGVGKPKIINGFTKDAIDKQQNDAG
UniProt P41159, residues 22-167: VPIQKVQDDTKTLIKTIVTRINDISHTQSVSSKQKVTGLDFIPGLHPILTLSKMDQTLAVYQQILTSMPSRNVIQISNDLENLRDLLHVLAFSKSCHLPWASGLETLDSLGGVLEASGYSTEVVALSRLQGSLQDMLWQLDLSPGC

Experiments:
[1] = molecular target: recombinant human leptin-R (human) (UniProt P48357); assay: competition ELISA, coated recombinant human leptin-R, leptin varied 0.1-10000 ng/ml against ZMC2 10 ng/ml
[2] = molecular target: recombinant human leptin-R (human) (UniProt P48357); assay: competition ELISA, coated human leptin-R, leptin varied against ZMC2 10 ng/ml
[3] = molecular target: recombinant mouse leptin-R (mouse) (UniProt P48356); assay: competition ELISA, coated recombinant mouse leptin-R, leptin against ZMC2
[4] = molecular target: recombinant mouse leptin-R (mouse) (UniProt P48356); assay: competition ELISA, coated mouse leptin-R, leptin against ZMC2

Measured: binding

leptin (from UniProt P41159 22-167) (ligand)
binds: all assays above
